For two molecules, binding results are on record in publication doi:10.1101/684480.

Results are given in words; binding and its absence hold for the method and conditions named. Binding calls can cover weak binding; strength is not graded here. For part of these data: In cells and extracts the contact can be indirect.

For assay [1], the target named is BCR-ABL with deleted SH2 domain (human). Briefly: co-IP.
Assay [2] addresses BCR-ABL with deleted SH3 domain (human). Briefly: co-IP.
Assay [3] concerns the target kinase-dead BCR-ABL (K271H) (human). Briefly: native gel or EMSA.

B1: SHC1, endogenous (protein, UniProt P29353 1-583)
chain: MDLLPPKPKYNPLRNESLSSLEEGASGSTPPEELPSPSASSLGPILPPLPGDDSPTTLCSFFPRMSNLRLANPAGGRPGSKGEPGRAADDGEGIVGAAMPDSGPLPLLQDMNKLSGGGGRRTRVEGGQLGGEEWTRHGSFVNKPTRGWLHPNDKVMGPGVSYLVRYMGCVEVLQSMRALDFNTRTQVTREAISLVCEAVPGAKGATRRRKPCSRPLSSILGRSNLKFAGMPITLTVSTSSLNLMAADCKQIIANHHMQSISFASGGDPDTAEYVAYVAKDPVNQRACHILECPEGLAQDVISTIGQAFELRFKQYLRNPPKLVTPHDRMAGFDGSAWDEEEEEPPDHQYYNDFPGKEPPLGGVVDMRLREGAAPGAARPTAPNAQTPSHLGATLPVGQPVGGDPEVRKQMPPPPPCPGRELFDDPSYVNVQNLDKARQAVGGAGPPNPAINGSAPRDLFDMKPFEDALRVPPPPQSVSMAEQLRGEPWFHGKLSRREAEALLQLNGDFLVRESTTTPGQYVLTGLQSGQPKHLLLVDPEGVVRTKDHRFESVSHLISYHMDNHLPIISAGSELCLQQPVERKL
Consider B1, for which the binding entry in assay [1] and in assay [2] was “binds” each time.

B2: SHIP2 of NIH3T3 cells (enzyme, UniProt Q6P549 1-1257)
chain: MASVCGTPSPGGALGSPAPAWYHRDLSRAAAEELLARAGRDGSFLVRDSESVAGAFALCVLYQKHVHTYRILPDGEDFLAVQTSQGVPVRRFQTLGELIGLYAQPNQGLVCALLLPVEGEREPDPPDDRDASDVEDEKPPLPPRSGSTSISAPVGPSSPLPTPETPTTPAAESTPNGLSTVSHEYLKGSYGLDLEAVRGGASNLPHLTRTLVTSCRRLHSEVDKVLSGLEILSKVFDQQSSPMVTRLLQQQSLPQTGEQELESLVLKLSVLKDFLSGIQKKALKALQDMSSTAPPAPLQPSIRKAKTIPVQAFEVKLDVTLGDLTKIGKSQKFTLSVDVEGGRLVLLRRQRDSQEDWTTFTHDRIRQLIKSQRVQNKLGVVFEKEKDRTQRKDFIFVSARKREAFCQLLQLMKNRHSKQDEPDMISVFIGTWNMGSVPPPKNVTSWFTSKGLGKALDEVTVTIPHDIYVFGTQENSVGDREWLDLLRGGLKELTDLDYRPIAMQSLWNIKVAVLVKPEHENRISHVSTSSVKTGIANTLGNKGAVGVSFMFNGTSFGFVNCHLTSGNEKTTRRNQNYLDILRLLSLGDRQLSAFDISLRFTHLFWFGDLNYRLDMDIQEILNYISRREFEPLLRVDQLNLEREKHKVFLRFSEEEISFPPTYRYERGSRDTYAWHKQKPTGVRTNVPSWCDRILWKSYPETHIICNSYGCTDDIVTSDHSPVFGTFEVGVTSQFISKKGLSKTSDQAYIEFESIEAIVKTASRTKFFIEFYSTCLEEYKKSFENDAQSSDNINFLKVQWSSRQLPTLKPILADIEYLQDQHLLLTVKSMDGYESYGECVVALKSMIGSTAQQFLTFLSHRGEETGNIRGSMKVRVPTERLGTRERLYEWISIDKDDTGAKSKVPSVSRGSQEHRSGSRKPASTETSCPLSKLFEEPEKPPPTGRPPAPPRAVPREEPLNPRLKSEGTSEQEGVAAPPPKNSFNNPAYYVLEGVPHQLLPLEPPSLARAPLPPATKNKVAITVPAPQLGRHRTPRVGEGSSSDEDSGGTLPPPDFPPPPLPDSAIFLPPNLDPLSMPVVRGRSGGEARGPPPPKAHPRPPLPPGTSPASTFLGEVASGDDRSCSVLQMAKTLSEVDYAPGPGRSALLPNPLELQPPRGPSDYGRPLSFPPPRIRESIQEDLAEEAPCPQGGRASGLGEAGMGAWLRAIGLERYEEGLVHNGWDDLEFLSDITEEDLEEAGVQDPAHKRLLLDTLQLSK
Consider B2, for which the binding entry in assay [3] is “binds”.
